# Reference: the GenesisPotency data set
# The whole screen tested about 390,000 compounds, of which about 17,000 (4.4%) were called active. About 8% were inconclusive and are not listed. Calls come from the whole dose curve; as a rule, active = well fitted inhibition curve with a large enough effect; inconclusive = small, poorly fitted or top-dose-only effect; inactive = no such curve, though single readings can be large or run the other way. Some of the results follow.
# Molecular target: T1, Lysine-specific demethylase 4A, Homo sapiens (UniProt O75164)
# T1 sequence (whole entry): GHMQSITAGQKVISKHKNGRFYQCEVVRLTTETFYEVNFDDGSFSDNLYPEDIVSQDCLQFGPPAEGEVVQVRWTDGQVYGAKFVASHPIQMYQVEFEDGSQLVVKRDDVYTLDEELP
# Experiment: qHTS Assay for Inhibitors of JMJD2A-Tudor Domain
row,SMILES,outcome
1,CCCC[N+](CCCC)(CCCC)CCCC.O=c1ccn([C@@H]2O[C@H](COS(=O)(=O)[O-])[C@@H](O)[C@H]2O)c(=O)[nH]1,inactive
